{"sequences": {"note": "Protein sequences, listed by entry. Tags and fused reporters are not part of them.", "UniProt P62316": "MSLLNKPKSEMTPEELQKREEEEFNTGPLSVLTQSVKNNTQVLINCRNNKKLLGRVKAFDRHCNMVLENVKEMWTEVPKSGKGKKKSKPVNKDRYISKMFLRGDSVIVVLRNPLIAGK"}, "source": "paper PMC11425265", "binders": {"B1": {"name": "HNRNPL (PL) (protein, UniProt P14866 1-589)", "chain": "MSRRLLPRAEKRRRRLEQRQQPDEQRRRSGAMVKMAAAGGGGGGGRYYGGGSEGGRAPKRLKTDNAGDQHGGGGGGGGGAGAAGGGGGGENYDDPHKTPASPVVHIRGLIDGVVEADLVEALQEFGPISYVVVMPKKRQALVEFEDVLGACNAVNYAADNQIYIAGHPAFVNYSTSQKISRPGDSDDSRSVNSVLLFTILNPIYSITTDVLYTICNPCGPVQRIVIFRKNGVQAMVEFDSVQSAQRAKASLNGADIYSGCCTLKIEYAKPTRLNVFKNDQDTWDYTNPNLSGQGDPGSNPNKRQRQPPLLGDHPAEYGGPHGGYHSHYHDEGYGPPPPHYEGRRMGPPVGGHRRGPSRYGPQYGHPPPPPPPPEYGPHADSPVLMVYGLDQSKMNCDRVFNVFCLYGNVEKVKFMKSKPGAAMVEMADGYAVDRAITHLNNNFMFGQKLNVCVSKQPAIMPGQSYGLEDGSCSYKDFSESRNNRFSTPEQAAKNRIQHPSNVLHFFNAPLEVTEENFFEICDELGVKRPSSVKVFSGKSERSSSGLLEWESKSDALETLGFLNHYQMKNPNGPYPYTLKLCFSTAQHAS"}}, "target": "SNRPD2 (PD2) (human) (UniProt P62316)", "assay": "affinity purification with mass spectrometry; IP-MS of PD2-interacting proteins, compared with the proteins pulled down by DDX39A pre-mRNA probes; cells and antibody not told in the text shown", "note": "Results are given in words; binding and its absence hold for the method and conditions named. In cells and extracts the contact can be indirect. Here binding means that the protein was enriched with, or labelled near, the bait; the list need not be complete."}
{"binder": "B1", "values": [{"measurement": "binding", "value": "binds"}]}
